Results are given in words; binding and its absence hold for the method and conditions named. In cells and extracts the contact can be indirect. Some results given as binding are weak or reduced against the parent protein; the word gives no strength. Sequences can lack the tags named with a protein.

One assay concerns the target Hip3-flag (S. pombe) (UniProt P87315). The experiment in a line: co-IP; whole-cell extracts of S. pombe strains expressing Hip3-flag or Hip3-1-flag and HA-spAsf1; anti-FLAG M2 agarose, 2 hr at 4°C, Buffer B with 150 mM NaCl, washes with 200 mM NaCl; western blot with anti-HA (3F10). (In general: A western blot detects proteins with antibodies after separation by electrophoresis.)

The target of the next assay is T1, Hip3-1-flag (S. pombe) (UniProt P87315).
T1 sequence: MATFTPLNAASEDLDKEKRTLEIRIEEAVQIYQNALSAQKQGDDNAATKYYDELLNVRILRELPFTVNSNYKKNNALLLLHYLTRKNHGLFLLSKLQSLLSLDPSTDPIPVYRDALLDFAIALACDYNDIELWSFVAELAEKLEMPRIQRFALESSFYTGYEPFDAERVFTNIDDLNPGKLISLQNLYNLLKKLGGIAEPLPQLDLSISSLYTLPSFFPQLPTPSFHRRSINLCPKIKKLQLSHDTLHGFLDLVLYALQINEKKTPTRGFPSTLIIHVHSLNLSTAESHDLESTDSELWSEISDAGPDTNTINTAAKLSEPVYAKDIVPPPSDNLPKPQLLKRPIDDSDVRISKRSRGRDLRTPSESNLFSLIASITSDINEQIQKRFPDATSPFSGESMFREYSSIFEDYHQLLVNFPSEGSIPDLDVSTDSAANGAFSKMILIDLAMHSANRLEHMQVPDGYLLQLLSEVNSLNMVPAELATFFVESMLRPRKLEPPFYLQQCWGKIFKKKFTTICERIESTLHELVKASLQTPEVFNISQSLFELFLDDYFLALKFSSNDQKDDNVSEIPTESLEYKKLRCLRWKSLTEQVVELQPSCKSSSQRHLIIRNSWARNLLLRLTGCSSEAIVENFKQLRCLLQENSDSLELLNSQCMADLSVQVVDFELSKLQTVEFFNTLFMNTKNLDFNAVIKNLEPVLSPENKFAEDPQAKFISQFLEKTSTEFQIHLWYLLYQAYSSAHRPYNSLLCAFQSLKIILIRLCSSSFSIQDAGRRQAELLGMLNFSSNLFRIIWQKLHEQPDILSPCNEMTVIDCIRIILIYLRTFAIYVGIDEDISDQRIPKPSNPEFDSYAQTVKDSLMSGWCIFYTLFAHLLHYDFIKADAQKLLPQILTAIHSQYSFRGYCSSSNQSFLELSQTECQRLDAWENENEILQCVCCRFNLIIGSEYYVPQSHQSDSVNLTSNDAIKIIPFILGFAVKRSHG
The assay is described as above.

B1: HA-tagged spAsf1 (protein, UniProt O74515 1-262)
chain: MSIVNILSVNVLNNPAKFSDPYKFEITFECLEPLKSDLEWKLTYVGSATSQSYDQILDTLLVGPIPIGINKFVFEADPPNIDLLPQLSDVLGVTVILLSCAYEDNEFVRVGYYVNNEMEGLNLQEMDDAEIKKVKVDISKVWRSILAEKPRVTRFNIQWDNPDFDDAPPVQPDADEEEEEEEADEMEEEFDEEGEGDEEEEEEDDGDGDGEGDGDGEGENDGKGSEEEEEEEIDIEEEEEESALANASAAEEKPEEKPETSQ
In the case of B1, the binding result in the assay with Hip3-flag (S. pombe) and in the assay with Hip3-1-flag (S. pombe) was “binds” throughout.

The values are drawn from paper PMC3084861.
